From article PMC3769253
Results are given in words; binding and its absence hold for the method and conditions named. Binding seen in cells or lysates may run through a third protein. Binding calls can cover weak binding; strength is not graded here. Tags and fused reporters may be left off the sequences shown.

Target: T1, recombinant CagI (without tag), Δ32N (H. pylori 26695) (UniProt O25273)
T1 sequence: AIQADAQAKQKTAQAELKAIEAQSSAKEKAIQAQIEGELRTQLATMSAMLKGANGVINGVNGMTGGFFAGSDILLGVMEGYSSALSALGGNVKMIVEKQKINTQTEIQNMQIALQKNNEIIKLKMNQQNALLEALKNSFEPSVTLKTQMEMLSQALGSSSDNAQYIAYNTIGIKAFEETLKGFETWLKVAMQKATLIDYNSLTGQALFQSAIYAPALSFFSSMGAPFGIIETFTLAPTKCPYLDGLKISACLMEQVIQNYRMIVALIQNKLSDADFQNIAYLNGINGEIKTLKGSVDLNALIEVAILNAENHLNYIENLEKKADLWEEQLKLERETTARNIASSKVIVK
Experiment: co-IP; soluble extract of E. coli BL-21(DE3) co-expressing the two recombinant proteins; anti-CagI, anti-CagH or anti-Hp1489 antibody; Western blotting

Row | Substance | binding
1 | recombinant Hp1489 (GST-tag) (from UniProt O26022) | binds
2 | MBP-CagH (H. pylori 26695) | binds
